Assay results from US11149050B2, “Highly soluble steviol glycosides” (PureCircle USA Inc., priority 2016, dated 2021).
Some entries share one result that the patent states for a list of compounds. At least one compound was matched to its structure with a doubt left.

Assay: Solubility in RO water at room temperature (25° C.) within 5 minutes, soluble if <10 FAU turbidity
Type: physicochemical
Settings: crystalline material
Experimental: Hereinafter, unless specified otherwise, the solubility of material is determined in RO (reverse osmosis) water at room temperature (25° C.) within 5 minutes.
Hereinafter, where the solubility is expressed as “%”, it to be understood as number of grams of material soluble in 100 grams of solvent.
Hereinafter, the descriptive terms for solubility are provided according to definitions in Combined Compendium of Food Additive Specifications Vol. 4 (FAO JECFA Monographs 1, Rome 2006, page 41).
Procedure: Unless otherwise specified, transfer a known amount of the sample into a flask containing known amount of the specified solvent, shake for no less than 30 sec and no more than 5 min.”
The material is deemed soluble at certain concentration if the produced solution has <10 FAU (Formazin Attenuation Unit) turbidity value.

SMILES | solubility
C=C1C[C@@]23CC[C@H]4[C@@](C)(CCC[C@@]4(C)C(=O)O[C@@H]4O[C@H](CO)[C@@H](O)[C@H](O)[C@H]4O[C@@H]4O[C@H](CO)[C@@H](O)[C@H](O)[C@H]4O)[C@@H]2CC[C@]1(O[C@@H]1O[C@H](CO)[C@@H](O)[C@H](O[C@@H]2O[C@H](CO)[C@@H](O)[C@H](O)[C@H]2O)[C@H]1O[C@@H]1O[C@H](CO)[C@@H](O)[C@H](O)[C@H]1O)C3 [Rebaudioside D] | 0%-0.1
C=C1C[C@@]23CC[C@H]4[C@@](C)(CCC[C@@]4(C)C(=O)O[C@@H]4O[C@H](CO)[C@@H](O)[C@H](O[C@@H]5O[C@H](CO)[C@@H](O)[C@H](O)[C@H]5O)[C@H]4O[C@@H]4O[C@H](CO)[C@@H](O)[C@H](O)[C@H]4O)[C@@H]2CC[C@]1(O[C@@H]1O[C@H](CO)[C@@H](O)[C@H](O[C@@H]2O[C@H](CO)[C@@H](O)[C@H](O)[C@H]2O)[C@H]1O[C@@H]1O[C@H](CO)[C@@H](O)[C@H](O)[C@H]1O)C3 [Rebaudioside M] | 0%-0.1
